≈ marks a conversion by molar mass, not a printed value.

This assay relates to S. aureus 8588. Briefly: Effectiveness against S. aureus 8588 (absorbance, Mueller-Hinton broth). In kind it is cell-based. To be noted: Staphylococcus aureus. From the text:
The absorbance readings of treatments above the MIC were similar to the negative control of Mueller-Hinton broth alone indicating no bacterial growth.
The absorbance readings of the phage K treated wells were similar to the negative control Mueller-Hinton broth alone.

Broadly, the MIC is the smallest concentration in the dilution series that meets the test's criterion for growth inhibition. Lower therefore signals inhibition by little substance. In the case of `CC1(C)S[C@@H]2[C@H](NC(=O)[C@H](N)c3ccccc3)C(=O)N2[C@H]1C(=O)O` [ampicillin], 20 µg/mL (≈ 57.2 µM) was the least that counted as inhibitory (MIC).

(Values after US11779618B2, “Treatment of topical and systemic bacterial infections” (priority 2014, dated 2023).)
